The test system of the test is BDF1 mice, L1210 6-MP/6-TG resistant leukemia ip, survival T/C. Nature of the test: NCI In Vivo Anticancer Drug Screen. Data for tumor model L1210 Leukemia resistant to 6-MP and 6-Thioguanine; NSC 755, NSC 752 (intraperitoneal) in B6D2F1 (BDF1) mice. Conditions: T/C endpoint: mean survival time, higher T/C = longer survival. The protocol: The antitumor activity of compounds was measured in mice bearing transplantable tumors. Survival or tumor size were measured and the results are expressed as the measurement made in the treated group (T) divided by the measurement made in the vehicle treated control group (C). The tumor model used in this assay is L1210 Leukemia resistant to 6-MP and 6-Thioguanine; NSC 755, NSC 752 (intraperitoneal) in B6D2F1 (BDF1) mice

[1] abbreviates: dose: 50.0 mg/kg/injection, schedule: Q01DX Z (ip), vehicle: carboxymethylcellulose (CMC).
[2] abbreviates: dose: 100.0 mg/kg/injection, schedule: Q01DX Z (ip), vehicle: carboxymethylcellulose (CMC).
The mark [3] stands for this setting: dose: 75.0 mg/kg/injection, schedule: Q01DX Z (ip), vehicle: carboxymethylcellulose (CMC).
Where [4] appears, read: dose: 150.0 mg/kg/injection, schedule: Q01DX Z (ip), vehicle: carboxymethylcellulose (CMC).
Setting [5] is: dose: 6.0 mg/kg/injection, schedule: Q01DX001 (ip), vehicle: carboxymethylcellulose (CMC).
The mark [6] stands for this setting: dose: 8.0 mg/kg/injection, schedule: Q01DX001 (ip), vehicle: carboxymethylcellulose (CMC).
Setting [7] is: dose: 10.0 mg/kg/injection, schedule: Q01DX001 (ip), vehicle: carboxymethylcellulose (CMC).

The list does not hold the whole screen: it is rich in T/C values a quarter to a half above the control, in often repeated tests (any T/C) and in doses without a T/C. Other doses and runs of a compound stand elsewhere. T/C is the treated group as % of the vehicle group. Some entries give survivors of the animals treated and no T/C: the source holds a T/C of zero for them, seemingly a mark for toxic or unscored doses. Some survivor counts are full or nearly so, which does not show that the dose was tolerated: survival well below the control is almost never listed, so the zero probably covers shortened survival too. Survivors were counted at the toxicity check, usually on the fifth day, unless a day is given; later deaths do not show. Schedules are NCI's codes, read here as Q, the interval in days (D) or hours (H), X, the number of doses. Some entries hold several experiments; their values stand side by side, smallest first. Some schedule codes hold Z or #, which are not explained here. Where survival is the endpoint, the PubChem record calls one and a half times the control and up active, and a quarter to a half above the control has no call in these data; cut-offs in other NCI protocols can differ. Some T/C values carry the count of animals alive at the toxicity check (mostly the fifth day); without a count, all were alive then.

For `Cc1c(O)ccc(=O)n1O`, the T/C (dose: 110.0 mg/kg/injection, schedule: Q01DX Z (ip), vehicle: other) was 127 % of control. The survivor count (dose: 247.0 mg/kg/injection, schedule: Q01DX Z (ip), vehicle: other) was 6 of 6.

In the case of `O=c1cn[nH]c(=O)[nH]1`, the T/C (dose: 750.0 mg/kg/injection, schedule: Q01DX Z (ip), vehicle: carboxymethylcellulose (CMC)) was 137 % of control.

Turning to `COC12C(COC(N)=O)C3=C(C(=O)C(C)=C(N)C3=O)N1CC1C2N1C` (stereo not given), the T/C (dose: 0.5 mg/kg/injection, schedule: Q01DX015 (ip), vehicle: carboxymethylcellulose (CMC)) is 135 % of control; the T/C (dose: 6.7 mg/kg/injection, schedule: Q01DX015 (ip), vehicle: carboxymethylcellulose (CMC)) was 148 % of control; the T/C (dose: 10.0 mg/kg/injection, schedule: Q01DX015 (ip), vehicle: carboxymethylcellulose (CMC)) is 141 % of control.

Turning to `Nc1nc(=S)c2[nH]cnc2[nH]1`, the survivor count (dose: 5.0 mg/kg/injection, schedule: Q01DX Z (ip), vehicle: carboxymethylcellulose (CMC)) is listed as 6 of 6 and the survivor count (dose: 10.0 mg/kg/injection, schedule: Q01DX Z (ip), vehicle: carboxymethylcellulose (CMC)) is listed as 6 of 6.

Turning to `CSc1ncc(Br)c(Sc2nc(N)nc3nc[nH]c23)n1`, the survivor count is reported as 6 of 6 (dose: 25.0 mg/kg/injection, schedule: Q01DX Z (ip), vehicle: carboxymethylcellulose (CMC)); 6 of 6 under setting [1]; 4 of 6 under setting [2].

As for `CCCSc1nc(N)nc2nc[nH]c12`, the survivor count is recorded as 6 of 7 (dose: 200.0 mg/kg/injection, schedule: Q01DX Z (ip), vehicle: carboxymethylcellulose (CMC)) and 0 of 7 (dose: 300.0 mg/kg/injection, schedule: Q01DX Z (ip), vehicle: carboxymethylcellulose (CMC)).

On to `c1ccc(CNc2ncnc3[nH]ncc23)cc1`, for which the survivor count reads like this: under setting [3], 5 of 6; under setting [2], 2 of 6.

Take `OCn1cnc2c(SC3CCCC3)ncnc21`: the survivor count reads like this: (dose: 6.25 mg/kg/injection, schedule: Q01DX009 (ip), vehicle: other) 6 of 6; (dose: 25.0 mg/kg/injection, schedule: Q01DX009 (ip), vehicle: other) 6 of 6; (dose: 100.0 mg/kg/injection, schedule: Q01DX009 (ip), vehicle: other) 9 of 9; (dose: 200.0 mg/kg/injection, schedule: Q01DX009 (ip), vehicle: other) 8 of 10; (dose: 400.0 mg/kg/injection, schedule: Q01DX009 (ip), vehicle: other) 0 of 10.

With `OCC1OC(n2cnc3c(=S)nc[nH]c32)CC1O` (stereo not given), for the setting “dose: 500.0 mg/kg/injection, schedule: Q01DX015 (ip), vehicle: carboxymethylcellulose (CMC)”, the survivor count was 5 of 6.

Take `CC[C@]1(O)C[C@H]2CN(CCc3c([nH]c4ccccc34)[C@@](C(=O)OC)(c3cc4c(cc3OC)N(C=O)[C@H]3[C@@](O)(C(=O)OC)[C@H](OC(C)=O)[C@]5(CC)C=CCN6CC[C@]43[C@@H]65)C2)C1`: the survivor count (dose: 0.45 mg/kg/injection, schedule: Q01DX015 (ip), vehicle: carboxymethylcellulose (CMC)) is given as 10 of 10.

Consider `Cn1c(N)nc2nc[nH]c2c1=S`, for which, under setting [4], the survivor count is 2 of 6.

On to `CCCC(=O)OCC1OC(n2cnc3c(=S)nc[nH]c32)C(OC(=O)CCC)C1OC(=O)CCC` (stereo not given), for which the survivor count reads like this: (dose: 37.5 mg/kg/injection, schedule: Q01DX Z (ip), vehicle: other) 9 of 10; (dose: 200.0 mg/kg/injection, schedule: Q01DX009 (ip), vehicle: Klucel (hydroxypropylcellulose) (HPC)) 10 of 10; (dose: 200.0 mg/kg/injection, schedule: Q01DX Z (ip), vehicle: other) 6 of 7; (dose: 400.0 mg/kg/injection, schedule: Q01DX009 (ip), vehicle: Klucel (hydroxypropylcellulose) (HPC)) 7 of 10.

Turning to `NC(=O)N(CCCl)N=O`, the T/C (dose: 0.22 mg/kg/injection, schedule: Q01DX Z (ip), vehicle: saline) is 138 % of control and the T/C (dose: 2.5 mg/kg/injection, schedule: Q01DX Z (ip), vehicle: saline) was 140 % of control. Besides, for the setting “dose: 10.0 mg/kg/injection, schedule: Q01DX Z (ip), vehicle: saline”, the survivor count was 5 of 6.

As for `CC(=O)OCC1OC(n2cnc3c(=S)nc(N)[nH]c32)C(OC(C)=O)C1OC(C)=O` (stereo not given), the survivor count (dose: 50.0 mg/kg/injection, schedule: Q01DX Z (ip), vehicle: other) is on record as 6 of 6 and the survivor count (dose: 100.0 mg/kg/injection, schedule: Q01DX Z (ip), vehicle: other) is recorded as 6 of 6.

On to `CC(=O)Nc1ccc2nc3ccc(NC(C)=O)cc3[n+](-c3ccccc3)c2c1`, for which the T/C is 136 % of control (dose: 7.5 mg/kg/injection, schedule: Q01DX Z (ip), vehicle: carboxymethylcellulose (CMC)); 141 % of control (dose: 37.5 mg/kg/injection, schedule: Q01DX Z (ip), vehicle: carboxymethylcellulose (CMC)); 129 % of control under setting [2]; 129 and 144 % of control under setting [4].

Take `Nc1ncnc2c1ccn2C1OC(CO)C(O)C1O` (stereo not given): the T/C was 104, 116, 118, 119 % of control (dose: 4.0 mg/kg/injection, schedule: Q01DX001 (ip), vehicle: carboxymethylcellulose (CMC)); 94 [9 of 10 alive], 114, 129 % of control under setting [5]; 110 and 130 % of control under setting [6]; 103 % of control under setting [7]. Besides, the survivor count is reported as 6 of 6 (dose: 4.0 mg/kg/injection, schedule: Q01DX Z (ip), vehicle: carboxymethylcellulose (CMC)); 10 of 10 under setting [5]; 9 of 10 under setting [6]; 5 of 10, 9 of 10, 10 of 10 under setting [7]; 6 of 10, 7 of 10, 8 of 10 (dose: 12.0 mg/kg/injection, schedule: Q01DX001 (ip), vehicle: carboxymethylcellulose (CMC)).

Consider `Cc1cc(N(CCCl)CCCl)ccc1N=Nc1ccccc1C(=O)O`, for which the survivor count was 5 of 6 under setting [1], 4 of 6 under setting [3] and 0 of 6 under setting [2].

Take `C[C@H](N)C(=O)N[C@@H]1[C@H]2C(=C(O)C[C@@H](O)[C@@H]2O)C(=O)O[C@@H]1C`: the T/C (dose: 99.0 mg/kg/injection, schedule: Q01DX015 (ip), vehicle: carboxymethylcellulose (CMC)) was 143 % of control; the T/C (dose: 148.0 mg/kg/injection, schedule: Q01DX015 (ip), vehicle: carboxymethylcellulose (CMC)) is 149 % of control; the T/C (dose: 221.0 mg/kg/injection, schedule: Q01DX015 (ip), vehicle: carboxymethylcellulose (CMC)) is 129 % of control; the T/C (dose: 250.0 mg/kg/injection, schedule: Q01DX Z (ip), vehicle: saline) is 139 % of control; the T/C (dose: 502.0 mg/kg/injection, schedule: Q01DX015 (ip), vehicle: carboxymethylcellulose (CMC)) is 142 % of control; the T/C (dose: 1000.0 mg/kg/injection, schedule: Q01DX Z (ip), vehicle: saline) was 136 % of control. For the same compound, under “dose: 1500.0 mg/kg/injection, schedule: Q01DX Z (ip), vehicle: saline”, the T/C is 140 % of control.

The record behind these values is PubChem BioAssay AID308 (DTP/NCI, 2004).
